In PubChem BioAssay AID504810 (National Center for Advancing Translational Sciences (NCATS), 2011):
In all, about 330,000 compounds went through this assay and about 670 (0.2%) were called active. This list was built around the results that the source calls inconclusive (neither active nor inactive); the mix of calls is not that of the screen.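 How the source made its calls: active means activity change below a set negative limit, meaning inhibition stronger than a set level (cut at about -70% in these data); inconclusive means activity change between two set negative limits; inactive means the rest.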

Amino acid sequences for entries named in this document (tags omitted).
UniProt P16473, whole entry, looked up: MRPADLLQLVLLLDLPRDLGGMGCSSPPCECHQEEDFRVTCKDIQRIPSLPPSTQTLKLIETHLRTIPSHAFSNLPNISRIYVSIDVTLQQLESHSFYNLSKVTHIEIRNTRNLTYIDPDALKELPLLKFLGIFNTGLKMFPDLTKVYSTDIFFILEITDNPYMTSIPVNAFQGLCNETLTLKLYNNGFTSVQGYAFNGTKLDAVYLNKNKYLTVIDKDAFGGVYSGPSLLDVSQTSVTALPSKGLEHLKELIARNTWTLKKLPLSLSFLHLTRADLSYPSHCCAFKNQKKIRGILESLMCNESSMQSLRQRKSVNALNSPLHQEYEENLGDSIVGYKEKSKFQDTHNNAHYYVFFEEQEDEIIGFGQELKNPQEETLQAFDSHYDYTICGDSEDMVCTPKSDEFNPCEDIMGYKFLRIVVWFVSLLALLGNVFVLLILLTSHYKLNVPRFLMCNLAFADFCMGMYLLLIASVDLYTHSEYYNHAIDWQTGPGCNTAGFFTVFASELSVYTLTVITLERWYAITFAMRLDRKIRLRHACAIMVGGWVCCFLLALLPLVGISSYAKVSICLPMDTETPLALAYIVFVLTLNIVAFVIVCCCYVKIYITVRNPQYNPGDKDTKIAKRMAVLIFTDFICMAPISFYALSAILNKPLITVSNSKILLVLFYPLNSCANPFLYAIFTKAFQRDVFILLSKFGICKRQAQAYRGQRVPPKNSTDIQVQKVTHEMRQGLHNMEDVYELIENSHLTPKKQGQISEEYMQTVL

Target: Thyrotropin receptor (Homo sapiens) (UniProt P16473)
Test: Antagonists of the Thyroid Stimulating Hormone Receptor: HTS campaign
Conditions: TSHR-expressing cells, TSH-stimulated cAMP HTRF, 2 h; at 11.5 µM; hits give low values
Procedure, shortened: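 Cell-based HTRF cAMP assay; TSHR cells + compound, TSH EC80 (4nM final), 2 h, 37 deg C. Lysis with anti-cAMP cryptate and cAMP-d2, 30 min RT, read 665/620 nm.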
On the % scale 0 is the no-effect control and ±100 the full control effect.

SMILES | activity change, negative = inhibition
CCC(C)NC(=O)CSc1nc2c(sc3ccccc32)c(=O)n1CCCN1CCOCC1 (stereo not drawn) | inactive: -16%
COc1cc(O)c(C(CCN2CCCC(C)C2)c2ccc3c(c2)OCO3)c(OC)c1 (stereo not drawn) | inactive: -4.3%
CC1CCN(S(=O)(=O)c2nnc(NC(=O)c3cccc(Cl)c3)s2)CC1 | inconclusive: -53.4%
Fc1ccc(Nc2ccnc(C(F)(F)F)c2)cc1 | inactive: 2.02%
COc1ccc(C(=O)N2CCN(C3CCN(Cc4ccccc4)CC3)CC2)cc1OC | inactive: 8.98%
CC(=O)Nc1ccc(NC(=O)[C@@H]2CCCN2S(=O)(=O)c2ccc3c(c2)OCCO3)cc1 | inactive: 7.22%
COc1ccc(NC(=O)n2ncc3c(C)cccc32)cc1 | inactive: -14%
COC(=O)CN(c1ccc(C)cc1)S(=O)(=O)c1ccc2c(c1)n(C)c(=O)c(=O)n2C | active: -95.6%
CCOc1ccc(Br)cc1S(=O)(=O)Nc1ccc(Cl)c(S(=O)(=O)N(CC)c2ccccc2)c1 | inconclusive: -67.1%
O=C(COC(=O)C12CC3CC(CC(Br)(C3)C1)C2)Nc1cccc(S(=O)(=O)N2CCOCC2)c1 | inconclusive: -51.2%
Cc1cccc(CS(=O)(=O)c2ncc(Cl)c(C(=O)Nc3c(C)cccc3C)n2)c1 | inconclusive: -67.2%
Nc1c(C(=O)N2CCCCC2)sc2nc3c(cc12)CCCC3 | inactive: -14.9%
COc1ccc(CN(C)C(=O)COC(=O)c2cnc(Cl)c(Cl)c2)cc1 | inconclusive: -53.4%
CC1CCCC(NC(=O)c2cccc(S(=O)(=O)NCc3ccccc3)c2)C1C (stereo not drawn) | inactive: 3.04%
CC(=O)N1c2ccc(S(=O)(=O)N(C)CC(=O)N(C)Cc3ccccc3)cc2CC1C (stereo not drawn) | active: -99.1%
COc1cc(OC)c(NC(=O)Cn2cnc3sc(C)c(S(=O)(=O)N4CCOCC4)c3c2=O)cc1Cl | active: -97.2%
NC(=O)CCN(Cc1ccccc1)S(=O)(=O)c1ccccc1 | inconclusive: -55.4%
CC(C)Cc1csc(NC(=O)c2ccc(Cl)cc2)c1C(=O)O | inconclusive: -50.3%
O=[N+]([O-])c1cc(Cc2ccccc2)cc(C=Nc2ccc(N3CCOCC3)cc2)c1O | inconclusive: -52.3%
OC1(c2ccc(OC(F)F)cc2)CSC(=Nc2cccnc2)N1C1CC1 (stereo not drawn) | inconclusive: -51%
COc1cc(C[C@@H]2C(=O)OC[C@H]2Cc2ccc(OC)c(OC)c2)ccc1O | inconclusive: -50.5%
COc1ccc(-c2cc(=O)oc3cc(OCC(=O)N(C)C)ccc23)cc1 | inconclusive: -54%
CCC(=O)OCCNc1cc(Sc2nc3ccccc3s2)c2nonc2c1[N+](=O)[O-] | inconclusive: -51.6%
O=C1CSC(=S)N1/N=C/c1cc(Br)c(O)c(Br)c1 | inconclusive: -61.7%
CN(C)c1ccc(N=Cc2ccco2)cc1 | active: -74.2%
Cc1ccc(S(=O)(=O)N(C)CCCC(=O)Nc2ccc(F)cc2)cc1 | inactive: -3.21%
CN(Cc1c(F)cccc1Cl)c1nnnn1-c1ccccc1 | inconclusive: -51.6%

Compounds above that have an aryl thioether with sulfur outside any ring (2):
SMILES | activity change, negative = inhibition
CCC(C)NC(=O)CSc1nc2c(sc3ccccc32)c(=O)n1CCCN1CCOCC1 (stereo not drawn) | inactive: -16%
CCC(=O)OCCNc1cc(Sc2nc3ccccc3s2)c2nonc2c1[N+](=O)[O-] | inconclusive: -51.6%

Some values from the list.
Under activity change, negative = inhibition, COc1ccc(C(=O)N2CCN(C3CCN(Cc4ccccc4)CC3)CC2)cc1OC is listed with inactive: 8.98%
Under activity change, negative = inhibition, CC(=O)Nc1ccc(NC(=O)[C@@H]2CCCN2S(=O)(=O)c2ccc3c(c2)OCCO3)cc1 is listed with inactive: 7.22%

Carrying on.

SMILES | activity change, negative = inhibition
COc1cc2c(cc1OC)CN(CCOc1ccc(Br)cc1)CC2 | inactive: -2.4%
C=CS(=O)(=O)c1ccc(Oc2ccc(S(=O)(=O)C=C)cc2)cc1 | active: -89.5%
Brc1ccc(CNc2ccc3ncccc3c2)cc1 | inconclusive: -55.1%
COc1cc(-c2nnc3sc(Cc4ccccc4)nn23)cc(OC)c1OC | inactive: -0.0244%
Cc1ccc(Oc2ccc(-c3nc(N)nc(N)n3)cc2)cc1C | inconclusive: -57.3%
COc1cc2c(C(=O)NCc3ccc4c(c3)OCO4)cn(CC(C)C)c(=O)c2cc1OC | inactive: -5.44%
O=C(Nc1ccc(N2CCN(C(=O)c3ccco3)CC2)c(Cl)c1)c1cc2ccccc2o1 | inconclusive: -67.7%
CCC1Sc2ccc(S(=O)(=O)CCC(=O)Nc3ccccc3Cl)cc2NC1=O (stereo not drawn) | active: -131%
CCn1c2ccccc2c2cc(/C=N/n3c(-c4cc(C)[nH]n4)n[nH]c3=S)ccc21 | inactive: -21%
CCN1CCN(C2=C(NS(=O)(=O)c3ccc(C)cc3)C(=O)c3ccccc3C2=O)CC1 | active: -79.4%
CCC(=O)c1ccc(OCC(=O)Nc2cccc(S(=O)(=O)N3CCCCCC3)c2)cc1 | inconclusive: -57.5%
CC(=O)c1c(C)oc2ccc(N(C(C)=O)S(=O)(=O)c3ccc(Cl)c([N+](=O)[O-])c3)cc12 | inconclusive: -54.6%
COc1ccc2c(-c3ccccc3)cc(=O)[nH]c2c1 | inactive: -1.34%
CS(=O)(=O)c1ncc(Cl)c(C(=O)Nc2ccc3ccccc3c2)n1 | inconclusive: -64%
COc1ccc(NC(=O)c2c(F)cccc2F)cc1S(=O)(=O)Nc1ccc(Br)cc1 | inconclusive: -65.9%
COc1cccc(OC)c1C(=O)Nc1ccc2c(c1)N(S(=O)(=O)c1cccs1)CCC2 | active: -112%
CC(=O)c1cccc(NC(=O)C(OC(=O)c2ccccc2NS(=O)(=O)c2cccs2)c2ccccc2)c1 (stereo not drawn) | inconclusive: -52.8%
CC(C)(C)c1cc2nc3c(c(=O)n2[nH]1)CN(Cc1ccccc1)C3=O | active: -79.3%
Cc1ccc(CS(=O)(=O)c2ncc(Cl)c(C(=O)Nc3nnc(C(C)C)s3)n2)cc1 | inconclusive: -60.4%
O=[N+]([O-])c1cccc(CN2CCN(Cc3ccco3)CC2)c1 | inconclusive: -56.8%
COc1ccc(-c2nc(NC(=O)c3cc(C(C)(C)C)nn3C)sc2C)cc1 | inconclusive: -65.7%
COC(=O)[C@@]12CCCN1[C@H](c1ccc(-c3ccc(OC)cc3)cc1)[C@@H]1C(=O)N(C)C(=O)[C@@H]12 | inconclusive: -51.5%
O=C1CC(Sc2nnnn2-c2ccccc2)C(=O)N1c1cccc(Cl)c1 (stereo not drawn) | inactive: 16.9%
N#Cc1nc(Nc2cccc(Cl)c2)c2ncn(C3CCCC3)c2n1 | inconclusive: -60.8%
CCN=c1scc(-c2cccs2)n1/N=C/c1cc(OC)ccc1O | inconclusive: -60.2%
C#CCOCCOCCOCCNc1nc(N2CCN(C(=O)CCCCCCCCCCNC(=O)[C@H](CCCCN)n3cc(C)nn3)CC2)nc(N2CCN(C(=O)CCCCCCCCCCNC(=O)[C@H](CCCN=C(N)N)n3cc(C[C@@H](C)CC)nn3)CC2)n1 | inconclusive: -62%
